According to publication PMC10115800, “Two assembly modes for SIN3 histone deacetylase complexes” (Cell Discovery, 2023):

Experiments:
[1] = molecular target: T1, Pst3 with C-terminal 3× Flag-tag (S. pombe, UniProt O74755 1-1154); test: cryo-EM structure; endogenous SIN3L complex purified from the Pst3-3×Flag S. pombe strain, cross-linked with 1 mM BS3; 20 mM HEPES pH 7.4, 50 mM NaCl, 2 mM DTT; 3.2 Å; both purified
T1 construct: Pst3, Sin3 homolog of S. pombe, subunit of the SIN3L complex; PAH3, HID and HCR are resolved in the model; Endogenous protein; also called Pst3-Flag; Sin3 isoform Pst3; source: endogenous locus tagged, S. pombe; purified (ANTI-FLAG M2 resin, glycerol gradient); not shown: 3× Flag, C-terminal, kept
T1 sequence (looked up): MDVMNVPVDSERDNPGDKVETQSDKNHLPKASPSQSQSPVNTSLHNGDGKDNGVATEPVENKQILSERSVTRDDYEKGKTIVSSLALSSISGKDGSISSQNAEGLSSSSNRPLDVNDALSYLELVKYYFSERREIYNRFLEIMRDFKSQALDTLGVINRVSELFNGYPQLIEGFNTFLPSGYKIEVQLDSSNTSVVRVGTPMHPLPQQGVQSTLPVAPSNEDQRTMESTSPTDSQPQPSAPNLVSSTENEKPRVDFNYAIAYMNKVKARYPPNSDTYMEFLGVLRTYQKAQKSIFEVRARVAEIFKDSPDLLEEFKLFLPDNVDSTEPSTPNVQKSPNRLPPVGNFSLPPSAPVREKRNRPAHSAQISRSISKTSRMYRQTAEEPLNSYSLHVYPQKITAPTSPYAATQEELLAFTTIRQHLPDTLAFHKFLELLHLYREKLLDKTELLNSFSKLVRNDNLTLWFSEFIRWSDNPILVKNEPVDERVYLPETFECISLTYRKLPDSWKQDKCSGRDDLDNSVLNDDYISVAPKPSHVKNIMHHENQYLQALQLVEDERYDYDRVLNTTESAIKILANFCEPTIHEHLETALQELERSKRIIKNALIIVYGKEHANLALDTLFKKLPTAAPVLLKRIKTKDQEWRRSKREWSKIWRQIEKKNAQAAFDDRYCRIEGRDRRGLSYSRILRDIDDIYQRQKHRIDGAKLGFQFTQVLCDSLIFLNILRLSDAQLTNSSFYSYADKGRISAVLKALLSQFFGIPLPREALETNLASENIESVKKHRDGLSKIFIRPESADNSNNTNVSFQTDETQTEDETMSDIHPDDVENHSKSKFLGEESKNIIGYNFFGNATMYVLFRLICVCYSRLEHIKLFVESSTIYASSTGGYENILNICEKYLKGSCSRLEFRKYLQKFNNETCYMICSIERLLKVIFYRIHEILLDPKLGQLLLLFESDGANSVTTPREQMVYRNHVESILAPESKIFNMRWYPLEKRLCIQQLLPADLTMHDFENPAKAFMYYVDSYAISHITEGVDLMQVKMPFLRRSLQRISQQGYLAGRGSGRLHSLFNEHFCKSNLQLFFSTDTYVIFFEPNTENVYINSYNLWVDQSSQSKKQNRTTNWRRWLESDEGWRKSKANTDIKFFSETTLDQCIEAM

Rxt3 (S. pombe) = molecular target: T2, Rxt3 (S. pombe) (UniProt O94707); test: as above
T2 sequence: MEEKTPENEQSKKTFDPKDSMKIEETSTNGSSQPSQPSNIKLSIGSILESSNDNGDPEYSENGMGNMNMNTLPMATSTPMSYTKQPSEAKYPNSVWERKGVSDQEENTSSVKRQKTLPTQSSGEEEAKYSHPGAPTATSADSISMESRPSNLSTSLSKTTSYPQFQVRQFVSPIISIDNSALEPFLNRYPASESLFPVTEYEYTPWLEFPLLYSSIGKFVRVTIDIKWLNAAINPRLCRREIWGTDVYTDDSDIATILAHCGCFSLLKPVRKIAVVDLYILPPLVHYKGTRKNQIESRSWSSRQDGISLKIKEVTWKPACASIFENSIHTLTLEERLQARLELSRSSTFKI

Dep1 = molecular target: T3, Dep1 (S. pombe, UniProt Q9P7M1 1-491); test: as above
T3 construct: Dep1 of S. pombe, scaffold subunit of the SIN3L complex; Endogenous protein; source: endogenous, S. pombe; co-purified with Pst3-3×Flag (ANTI-FLAG M2 resin, glycerol gradient)
T3 sequence (looked up): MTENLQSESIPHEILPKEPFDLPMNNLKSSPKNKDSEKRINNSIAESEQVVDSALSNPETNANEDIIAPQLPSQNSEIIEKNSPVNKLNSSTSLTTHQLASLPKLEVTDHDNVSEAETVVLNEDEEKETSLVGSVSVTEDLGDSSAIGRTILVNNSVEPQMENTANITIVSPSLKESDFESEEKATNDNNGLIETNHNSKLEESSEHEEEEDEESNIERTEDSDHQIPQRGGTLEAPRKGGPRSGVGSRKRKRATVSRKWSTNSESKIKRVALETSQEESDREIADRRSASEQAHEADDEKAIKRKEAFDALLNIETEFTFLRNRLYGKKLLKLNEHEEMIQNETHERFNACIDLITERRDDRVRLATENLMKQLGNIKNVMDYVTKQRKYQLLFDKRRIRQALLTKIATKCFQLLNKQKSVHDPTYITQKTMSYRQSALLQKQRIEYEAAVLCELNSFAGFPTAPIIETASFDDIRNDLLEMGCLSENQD

Png2 (S. pombe) = molecular target: T4, Png2 (S. pombe) (UniProt O74736); test: as above
T4 sequence: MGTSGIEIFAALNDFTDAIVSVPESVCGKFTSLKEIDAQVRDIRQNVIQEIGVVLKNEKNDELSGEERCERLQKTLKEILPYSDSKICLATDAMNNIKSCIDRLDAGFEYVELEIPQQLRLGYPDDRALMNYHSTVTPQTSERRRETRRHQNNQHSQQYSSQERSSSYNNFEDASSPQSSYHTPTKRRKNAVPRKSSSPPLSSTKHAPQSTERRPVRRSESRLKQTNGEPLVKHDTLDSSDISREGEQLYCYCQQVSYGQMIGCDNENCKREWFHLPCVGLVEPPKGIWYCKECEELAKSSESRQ

[2] = molecular target: T5, histone deacetylase Clr6 (S. pombe) (UniProt O59702); test: as above
T5 sequence: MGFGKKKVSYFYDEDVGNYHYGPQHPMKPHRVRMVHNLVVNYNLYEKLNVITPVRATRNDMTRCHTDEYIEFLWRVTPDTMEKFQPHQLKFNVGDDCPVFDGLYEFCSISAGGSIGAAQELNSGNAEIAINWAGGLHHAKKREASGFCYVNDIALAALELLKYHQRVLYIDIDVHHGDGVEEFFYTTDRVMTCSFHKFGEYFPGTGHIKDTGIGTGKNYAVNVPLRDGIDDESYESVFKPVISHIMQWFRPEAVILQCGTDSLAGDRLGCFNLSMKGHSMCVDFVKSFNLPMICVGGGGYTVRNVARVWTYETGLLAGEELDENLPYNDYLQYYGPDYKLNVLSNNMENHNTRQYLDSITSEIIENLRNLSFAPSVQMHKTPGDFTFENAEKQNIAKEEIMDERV

[3] = molecular target: T6, Pst2 with C-terminal 3× Flag-tag (S. pombe, UniProt O13919 1-1075); test: cryo-EM structure; endogenous SIN3S complex purified from the Pst2-3×Flag S. pombe strain, cross-linked with 1 mM BS3; 20 mM HEPES pH 7.4, 50 mM NaCl, 2 mM DTT; 2.9 Å; both purified
T6 construct: Pst2, Sin3 homolog of S. pombe, organising subunit of the SIN3S complex; all five domains (PAH1/2/3, HID, HCR) are resolved; also called Pst2-Flag; Sin3 isoform Pst2; source: endogenous locus tagged, S. pombe; purified (ANTI-FLAG M2 resin, glycerol gradient); not shown: 3× Flag, C-terminal, kept
T6 sequence (looked up): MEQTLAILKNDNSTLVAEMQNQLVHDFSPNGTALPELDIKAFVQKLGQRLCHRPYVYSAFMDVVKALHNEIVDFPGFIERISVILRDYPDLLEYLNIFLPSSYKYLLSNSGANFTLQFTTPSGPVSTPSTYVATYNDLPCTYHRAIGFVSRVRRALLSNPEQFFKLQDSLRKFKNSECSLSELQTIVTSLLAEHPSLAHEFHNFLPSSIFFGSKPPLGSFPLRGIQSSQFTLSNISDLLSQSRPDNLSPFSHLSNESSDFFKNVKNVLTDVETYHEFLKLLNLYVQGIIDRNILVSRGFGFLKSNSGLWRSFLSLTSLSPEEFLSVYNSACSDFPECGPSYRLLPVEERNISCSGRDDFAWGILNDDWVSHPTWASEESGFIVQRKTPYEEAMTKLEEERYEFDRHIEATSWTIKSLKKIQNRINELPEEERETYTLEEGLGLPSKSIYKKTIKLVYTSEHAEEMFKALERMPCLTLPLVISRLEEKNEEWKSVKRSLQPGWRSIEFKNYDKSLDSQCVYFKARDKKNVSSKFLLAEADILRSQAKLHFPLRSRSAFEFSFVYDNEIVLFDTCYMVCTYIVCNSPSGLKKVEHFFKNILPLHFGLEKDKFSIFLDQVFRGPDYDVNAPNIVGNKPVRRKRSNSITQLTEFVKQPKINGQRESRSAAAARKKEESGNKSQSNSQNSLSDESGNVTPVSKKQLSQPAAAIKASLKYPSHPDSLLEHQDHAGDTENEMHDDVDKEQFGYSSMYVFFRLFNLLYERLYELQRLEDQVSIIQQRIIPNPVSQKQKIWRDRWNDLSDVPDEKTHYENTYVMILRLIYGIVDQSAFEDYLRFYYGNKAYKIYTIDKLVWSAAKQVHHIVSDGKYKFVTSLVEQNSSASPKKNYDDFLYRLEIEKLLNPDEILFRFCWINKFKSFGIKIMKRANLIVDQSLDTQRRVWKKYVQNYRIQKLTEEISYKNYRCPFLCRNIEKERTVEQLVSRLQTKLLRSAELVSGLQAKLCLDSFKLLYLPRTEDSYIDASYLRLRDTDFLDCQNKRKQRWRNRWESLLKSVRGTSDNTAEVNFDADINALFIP

Cph1 (S. pombe) = test: as above
Cph2 (S. pombe) = test: as above

Molecule: Rxt2 (S. pombe)
- binding [1]: binds
- binding (Rxt3 (S. pombe)): binds
- binding (Dep1): binds
- binding (Png2 (S. pombe)): binds
- binding [2]: binds

Molecule: Cph1 (S. pombe)
- binding [3]: binds

Molecule: Cph2 (S. pombe)
- binding [3]: binds

B1: Eaf3 (protein, UniProt O13953 1-337)
chain: MAVSYKVNERVLCFHGPLLYEAKIVDTEMKGDVTTYLIHYKGWKNSWDEWVEQDRILQWTEENLKTQKELKNAAISTRQKPTSKKSASSTSKHDSTGVKTSGKRSRESSTVTVDGDSHELPSRIKTQKSESPIPQQVKRDGTTDAKNEETTKPENNEKDDFEEEPPLPKHKISVPDVLKLWLVDDWENITKNQQLIAIPRNPTVRAAIAAFRESKISHLNNEIDVDVFEQAMAGLVIYFNKCLGNMLLYRFERQQYLEIRQQYPDTEMCDLYGVEHLIRLFVSLPELIDRTNMDSQSIECLLNYIEEFLKYLVLHKDEYFIKEYQNAPPNYRSLVGV
- binding (Cph1 (S. pombe)): binds
- binding (Cph2 (S. pombe)): binds

Results are given in words; binding and its absence hold for the method and conditions named. Binding can be weak; no strength is given. For part of these data: Sequences can lack the tags named with a protein.
